In the supplement of paper PMC10849652:
The other results are listed elsewhere or left out.

By UniProt entry, the sequences of proteins in these tests, tags left out. Where a name states a change or a piece, a line headed by the entry shows the natural chain unless it says otherwise.
UniProt Q5VWN6: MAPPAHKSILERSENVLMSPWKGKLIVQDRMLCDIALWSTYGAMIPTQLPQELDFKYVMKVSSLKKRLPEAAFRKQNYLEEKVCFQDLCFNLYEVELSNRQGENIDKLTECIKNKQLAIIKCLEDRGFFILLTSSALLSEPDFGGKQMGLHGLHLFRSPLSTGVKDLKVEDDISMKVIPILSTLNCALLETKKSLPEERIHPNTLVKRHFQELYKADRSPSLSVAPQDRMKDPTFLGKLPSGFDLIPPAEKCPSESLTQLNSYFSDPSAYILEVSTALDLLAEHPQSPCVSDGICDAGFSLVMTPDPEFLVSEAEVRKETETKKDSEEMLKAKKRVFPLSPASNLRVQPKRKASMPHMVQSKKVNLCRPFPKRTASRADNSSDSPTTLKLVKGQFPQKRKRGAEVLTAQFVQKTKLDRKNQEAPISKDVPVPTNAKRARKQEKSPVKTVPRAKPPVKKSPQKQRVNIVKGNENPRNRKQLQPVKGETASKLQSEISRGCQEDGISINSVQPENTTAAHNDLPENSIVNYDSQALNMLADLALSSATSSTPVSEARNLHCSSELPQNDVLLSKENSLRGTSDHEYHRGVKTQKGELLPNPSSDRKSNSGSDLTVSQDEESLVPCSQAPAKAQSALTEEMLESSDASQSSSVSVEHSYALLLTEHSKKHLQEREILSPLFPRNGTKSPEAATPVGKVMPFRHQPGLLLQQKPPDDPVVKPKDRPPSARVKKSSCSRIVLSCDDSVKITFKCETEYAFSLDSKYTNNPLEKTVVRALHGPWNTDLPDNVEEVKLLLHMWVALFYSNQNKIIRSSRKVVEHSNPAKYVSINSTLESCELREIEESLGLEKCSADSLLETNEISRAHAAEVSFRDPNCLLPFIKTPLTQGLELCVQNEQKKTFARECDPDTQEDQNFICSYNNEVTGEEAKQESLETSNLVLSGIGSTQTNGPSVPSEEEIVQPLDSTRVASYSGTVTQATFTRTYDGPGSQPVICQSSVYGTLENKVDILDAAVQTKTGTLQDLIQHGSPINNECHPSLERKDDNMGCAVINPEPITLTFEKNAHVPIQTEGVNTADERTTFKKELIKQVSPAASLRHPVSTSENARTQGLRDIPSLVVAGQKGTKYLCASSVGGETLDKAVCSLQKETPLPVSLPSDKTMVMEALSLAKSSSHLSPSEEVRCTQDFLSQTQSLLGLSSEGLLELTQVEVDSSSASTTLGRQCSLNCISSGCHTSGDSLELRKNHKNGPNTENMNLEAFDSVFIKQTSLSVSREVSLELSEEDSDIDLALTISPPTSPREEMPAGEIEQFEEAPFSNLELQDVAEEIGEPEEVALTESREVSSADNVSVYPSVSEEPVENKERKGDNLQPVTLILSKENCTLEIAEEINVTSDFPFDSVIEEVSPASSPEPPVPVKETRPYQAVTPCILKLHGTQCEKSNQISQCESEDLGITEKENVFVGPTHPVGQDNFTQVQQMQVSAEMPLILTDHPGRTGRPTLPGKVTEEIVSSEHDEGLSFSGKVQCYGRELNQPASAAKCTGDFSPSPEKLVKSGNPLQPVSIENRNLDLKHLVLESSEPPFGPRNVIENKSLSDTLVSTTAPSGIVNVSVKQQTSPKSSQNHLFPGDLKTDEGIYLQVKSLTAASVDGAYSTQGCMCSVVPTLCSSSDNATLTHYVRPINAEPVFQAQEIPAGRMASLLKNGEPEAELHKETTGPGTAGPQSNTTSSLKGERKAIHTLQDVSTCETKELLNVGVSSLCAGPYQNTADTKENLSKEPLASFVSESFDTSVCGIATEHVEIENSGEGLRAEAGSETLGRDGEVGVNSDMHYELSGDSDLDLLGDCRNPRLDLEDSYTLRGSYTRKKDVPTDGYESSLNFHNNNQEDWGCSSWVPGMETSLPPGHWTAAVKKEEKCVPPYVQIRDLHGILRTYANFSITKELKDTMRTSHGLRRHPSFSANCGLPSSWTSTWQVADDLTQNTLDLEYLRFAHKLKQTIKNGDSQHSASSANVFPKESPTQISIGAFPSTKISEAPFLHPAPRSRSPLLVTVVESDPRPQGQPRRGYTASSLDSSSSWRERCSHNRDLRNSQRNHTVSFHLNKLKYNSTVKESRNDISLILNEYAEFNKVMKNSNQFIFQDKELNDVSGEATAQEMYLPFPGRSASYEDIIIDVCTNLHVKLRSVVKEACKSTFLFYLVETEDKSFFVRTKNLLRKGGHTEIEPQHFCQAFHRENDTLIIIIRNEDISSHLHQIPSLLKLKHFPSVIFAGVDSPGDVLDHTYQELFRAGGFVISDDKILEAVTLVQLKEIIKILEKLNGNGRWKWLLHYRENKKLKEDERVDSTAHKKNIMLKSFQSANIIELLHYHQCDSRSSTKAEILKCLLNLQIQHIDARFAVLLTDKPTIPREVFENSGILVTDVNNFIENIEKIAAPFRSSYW
UniProt Q8N4U5: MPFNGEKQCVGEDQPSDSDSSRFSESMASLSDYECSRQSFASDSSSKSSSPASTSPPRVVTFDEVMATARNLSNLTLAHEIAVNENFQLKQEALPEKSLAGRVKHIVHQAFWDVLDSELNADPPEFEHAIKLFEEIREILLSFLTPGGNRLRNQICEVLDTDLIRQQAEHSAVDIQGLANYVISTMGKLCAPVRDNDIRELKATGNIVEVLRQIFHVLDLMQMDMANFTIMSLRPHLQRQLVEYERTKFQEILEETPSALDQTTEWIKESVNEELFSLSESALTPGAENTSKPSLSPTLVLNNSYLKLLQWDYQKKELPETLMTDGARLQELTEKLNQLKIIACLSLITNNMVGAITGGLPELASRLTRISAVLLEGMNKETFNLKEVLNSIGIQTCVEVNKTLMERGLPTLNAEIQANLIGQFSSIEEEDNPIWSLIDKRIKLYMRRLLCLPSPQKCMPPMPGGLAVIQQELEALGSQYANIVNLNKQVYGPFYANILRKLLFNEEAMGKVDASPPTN
UniProt P15923: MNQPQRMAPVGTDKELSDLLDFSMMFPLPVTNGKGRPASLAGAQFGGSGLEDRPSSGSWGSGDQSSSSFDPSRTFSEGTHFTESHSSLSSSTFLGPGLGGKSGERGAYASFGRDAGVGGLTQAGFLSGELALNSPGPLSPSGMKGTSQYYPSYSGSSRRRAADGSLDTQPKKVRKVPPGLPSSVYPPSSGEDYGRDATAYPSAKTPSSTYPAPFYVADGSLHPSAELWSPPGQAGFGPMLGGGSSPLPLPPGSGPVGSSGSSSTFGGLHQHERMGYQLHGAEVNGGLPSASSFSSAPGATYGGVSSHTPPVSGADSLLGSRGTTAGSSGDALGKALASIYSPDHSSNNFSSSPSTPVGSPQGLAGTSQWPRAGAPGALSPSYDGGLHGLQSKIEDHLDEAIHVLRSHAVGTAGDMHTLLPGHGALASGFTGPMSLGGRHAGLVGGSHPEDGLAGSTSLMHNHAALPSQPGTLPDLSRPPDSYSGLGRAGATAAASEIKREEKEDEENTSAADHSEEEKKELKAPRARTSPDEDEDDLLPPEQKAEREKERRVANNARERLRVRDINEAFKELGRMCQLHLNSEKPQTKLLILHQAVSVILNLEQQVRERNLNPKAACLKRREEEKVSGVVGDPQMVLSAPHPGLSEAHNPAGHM
UniProt Q9UHQ7: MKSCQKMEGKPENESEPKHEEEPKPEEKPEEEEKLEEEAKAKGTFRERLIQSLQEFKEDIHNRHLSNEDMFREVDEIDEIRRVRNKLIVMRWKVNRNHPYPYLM
UniProt P10646, whole entry, looked up: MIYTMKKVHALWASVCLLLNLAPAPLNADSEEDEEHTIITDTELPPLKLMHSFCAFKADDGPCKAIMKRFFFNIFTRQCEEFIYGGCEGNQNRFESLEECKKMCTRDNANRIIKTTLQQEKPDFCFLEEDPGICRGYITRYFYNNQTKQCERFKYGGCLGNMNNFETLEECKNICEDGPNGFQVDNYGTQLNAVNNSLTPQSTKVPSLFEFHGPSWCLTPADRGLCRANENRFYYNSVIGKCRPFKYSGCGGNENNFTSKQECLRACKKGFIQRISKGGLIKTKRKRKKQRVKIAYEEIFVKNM
UniProt Q99594, whole entry, looked up: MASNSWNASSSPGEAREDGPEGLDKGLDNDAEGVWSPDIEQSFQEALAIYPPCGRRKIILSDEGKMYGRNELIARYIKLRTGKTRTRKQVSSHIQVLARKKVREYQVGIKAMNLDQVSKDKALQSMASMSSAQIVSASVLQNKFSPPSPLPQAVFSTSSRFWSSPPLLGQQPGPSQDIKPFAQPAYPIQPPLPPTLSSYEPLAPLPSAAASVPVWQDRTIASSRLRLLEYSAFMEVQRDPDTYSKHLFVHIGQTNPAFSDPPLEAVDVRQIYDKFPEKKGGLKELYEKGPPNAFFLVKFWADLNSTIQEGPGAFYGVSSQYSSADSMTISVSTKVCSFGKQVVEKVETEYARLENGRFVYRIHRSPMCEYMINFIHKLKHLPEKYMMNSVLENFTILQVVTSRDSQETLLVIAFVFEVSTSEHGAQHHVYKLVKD
UniProt Q6NUS6: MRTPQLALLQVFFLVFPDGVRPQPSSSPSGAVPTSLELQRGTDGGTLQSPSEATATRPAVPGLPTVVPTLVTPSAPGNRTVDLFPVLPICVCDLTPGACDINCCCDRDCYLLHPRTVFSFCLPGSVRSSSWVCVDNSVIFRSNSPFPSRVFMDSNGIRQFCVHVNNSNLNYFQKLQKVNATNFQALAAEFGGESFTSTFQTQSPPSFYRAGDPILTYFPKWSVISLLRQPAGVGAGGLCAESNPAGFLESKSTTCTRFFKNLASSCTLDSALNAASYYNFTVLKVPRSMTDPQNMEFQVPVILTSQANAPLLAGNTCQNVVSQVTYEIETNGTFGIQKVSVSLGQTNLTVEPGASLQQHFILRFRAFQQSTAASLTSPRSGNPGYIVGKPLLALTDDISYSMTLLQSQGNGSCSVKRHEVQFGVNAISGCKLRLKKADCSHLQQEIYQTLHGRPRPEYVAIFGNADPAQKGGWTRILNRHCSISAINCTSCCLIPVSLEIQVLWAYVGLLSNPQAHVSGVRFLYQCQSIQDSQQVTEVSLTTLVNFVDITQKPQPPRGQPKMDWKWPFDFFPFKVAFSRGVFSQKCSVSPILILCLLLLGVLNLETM
UniProt Q9UL54: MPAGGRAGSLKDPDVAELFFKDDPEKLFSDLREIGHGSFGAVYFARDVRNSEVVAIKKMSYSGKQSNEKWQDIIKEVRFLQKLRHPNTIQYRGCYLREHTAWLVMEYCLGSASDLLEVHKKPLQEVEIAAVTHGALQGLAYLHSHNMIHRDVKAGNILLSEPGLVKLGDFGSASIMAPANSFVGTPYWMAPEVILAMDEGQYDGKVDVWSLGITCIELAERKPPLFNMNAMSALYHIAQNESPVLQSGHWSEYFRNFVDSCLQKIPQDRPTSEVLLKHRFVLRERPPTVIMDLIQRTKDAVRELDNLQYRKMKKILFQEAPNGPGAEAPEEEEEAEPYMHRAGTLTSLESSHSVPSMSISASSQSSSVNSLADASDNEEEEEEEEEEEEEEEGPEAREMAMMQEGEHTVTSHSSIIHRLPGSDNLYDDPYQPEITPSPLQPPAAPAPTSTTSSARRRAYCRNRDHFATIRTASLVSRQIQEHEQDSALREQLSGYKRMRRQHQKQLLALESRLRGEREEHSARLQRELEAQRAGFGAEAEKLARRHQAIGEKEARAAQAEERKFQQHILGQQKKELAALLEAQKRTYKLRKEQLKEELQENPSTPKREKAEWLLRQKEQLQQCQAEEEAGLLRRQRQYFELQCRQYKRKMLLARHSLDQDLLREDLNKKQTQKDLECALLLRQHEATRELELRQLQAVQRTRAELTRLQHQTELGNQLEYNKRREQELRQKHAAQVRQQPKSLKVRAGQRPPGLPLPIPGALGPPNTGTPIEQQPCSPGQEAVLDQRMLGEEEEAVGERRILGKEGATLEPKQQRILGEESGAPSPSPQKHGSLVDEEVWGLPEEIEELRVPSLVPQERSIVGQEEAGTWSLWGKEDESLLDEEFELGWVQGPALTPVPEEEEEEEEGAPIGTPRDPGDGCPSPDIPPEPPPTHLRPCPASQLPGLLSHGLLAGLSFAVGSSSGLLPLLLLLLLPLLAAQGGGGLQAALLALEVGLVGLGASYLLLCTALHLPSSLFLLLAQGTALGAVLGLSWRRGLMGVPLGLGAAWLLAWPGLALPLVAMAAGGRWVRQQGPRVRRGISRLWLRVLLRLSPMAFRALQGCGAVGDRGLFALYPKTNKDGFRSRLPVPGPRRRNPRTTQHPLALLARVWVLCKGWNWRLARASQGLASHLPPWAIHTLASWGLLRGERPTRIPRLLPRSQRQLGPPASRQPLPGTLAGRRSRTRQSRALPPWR
UniProt Q96MN5: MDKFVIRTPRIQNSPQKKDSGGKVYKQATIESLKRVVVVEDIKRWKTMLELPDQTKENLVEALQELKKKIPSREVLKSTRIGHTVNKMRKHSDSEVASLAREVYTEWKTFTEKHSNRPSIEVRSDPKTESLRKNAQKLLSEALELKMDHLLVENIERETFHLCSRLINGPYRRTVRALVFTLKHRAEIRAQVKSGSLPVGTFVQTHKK

Legend:
Test in all cases: log2 fold change, soluble protein after heating vs DMSO (PISA); higher = thermal stabilisation; K562 lysate, 10 uM; active = over 0.2 and 3.5 SD of the protein, either way, in both replicates (recomputed)
pictilisib = compound: CS(=O)(=O)N1CCN(Cc2cc3nc(-c4cccc5[nH]ncc45)nc(N4CCOCC4)c3s2)CC1 [pictilisib]
Outline: (§1)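 The values are log-two fold changes in thermal stability compared with solvent controls and come from duplicates. They were obtained by TMTpro 16plex LC-MS/MS, with channel sums equalised, on the supernatant after 21,000xg for 90 min. That supernatant came from crude K562 extract at 1 mg/mL protein treated with 10 μM compound for 30 min, heated for 3 min across 48°C-58°C, pooled and brought to 0.5% NP-40 at 4°C.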

duvelisib = compound: C[C@H](Nc1ncnc2nc[nH]c12)c1cc2cccc(Cl)c2c(=O)n1-c1ccccc1 [duvelisib]
Outline: as §1

tozasertib = compound: Cc1cc(Nc2cc(N3CCN(C)CC3)nc(Sc3ccc(NC(=O)C4CC4)cc3)n2)n[nH]1 [tozasertib]
Outline: as §1

bafetinib = compound: Cc1ccc(NC(=O)c2ccc(CN3CC[C@H](N(C)C)C3)c(C(F)(F)F)c2)cc1Nc1nccc(-c2cncnc2)n1 [bafetinib]
Outline: as §1

nilotinib = compound: Cc1cn(-c2cc(NC(=O)c3ccc(C)c(Nc4nccc(-c5cccnc5)n4)c3)cc(C(F)(F)F)c2)cn1 [nilotinib]
Outline: as §1

[1] = compound: Cc1nc(Nc2n[nH]c3c2CN(C(=O)N[C@H](CN(C)C)c2ccccc2)C3(C)C)c2sccc2n1
Outline: as §1

dasatinib = compound: Cc1nc(Nc2ncc(C(=O)Nc3c(C)cccc3Cl)s2)cc(N2CCN(CCO)CC2)n1 [dasatinib]
Outline: as §1

[2] = compound: Cc1ncc(-c2ccnc(Nc3ccc(S(C)(=O)=O)cc3)n2)n1C(C)C
Outline: as §1

[3] = compound: Cn1cc(-c2ccc3c(c2)CCN3C(=O)Cc2cccc(C(F)(F)F)c2)c2c(N)ncnc21
Outline: as §1

tipifarnib = compound: Cn1cncc1[C@@](N)(c1ccc(Cl)cc1)c1ccc2c(c1)c(-c1cccc(Cl)c1)cc(=O)n2C [tipifarnib]
Outline: as §1

[4] = compound: C[C@H](C1=CC=C(C=C1)C(=O)NC2=C3C=CNC3=NC=C2)N
Outline: as §1

gandotinib = compound: Cc1cc(Nc2cc(CN3CCOCC3)c3nc(C)c(Cc4ccc(Cl)cc4F)n3n2)n[nH]1 [gandotinib]
Outline: as §1

[5] = compound: Cc1cccc(CC(=O)N2CCc3c2ccc(-c2cn(C)c4ncnc(N)c24)c3F)n1
Outline: as §1

[6] = compound: NC1(c2ccc(-c3nc4ccn5c(=O)[nH]nc5c4cc3-c3ccccc3)cc2)CCC1
Outline: as §1

crizotinib = compound: C[C@@H](Oc1cc(-c2cnn(C3CCNCC3)c2)cnc1N)c1c(Cl)ccc(F)c1Cl [crizotinib]
Outline: as §1

doramapimod = compound: Cc1ccc(-n2nc(C(C)(C)C)cc2NC(=O)Nc2ccc(OCCN3CCOCC3)c3ccccc23)cc1 [doramapimod]
Outline: as §1

quisinostat = compound: Cn1cc(CNCC2CCN(c3ncc(C(=O)NO)cn3)CC2)c2ccccc21 [quisinostat]
Outline: as §1

[7] = compound: NC(=O)Nc1cc(-c2cccc(F)c2)sc1C(=O)N[C@H]1CCCNC1
Outline: as §1

Measured: log2 fold change

TASOR2 (UniProt Q5VWN6)
inactive: pictilisib -0.066 | duvelisib -0.11 | tozasertib 0.171 | bafetinib -0.557 | nilotinib -0.096 | [1] 0.069 | dasatinib 0 | [2] -0.051 | [3] 0.145 | tipifarnib 0.014

TCP11L2 (UniProt Q8N4U5)
inactive: [4] -0.217 | gandotinib 0.019 | tozasertib -0.064 | [5] 0.024 | [6] 0.066

TCF3 isoform 2 (UniProt P15923)
inactive: crizotinib -0.048 | doramapimod 0.092 | quisinostat -0.05 | [7] -0.005 | [6] -0.068

2 records drawn at random from those above:
TCF3 isoform 2 (UniProt P15923)
inactive: crizotinib -0.048 | doramapimod 0.092 | quisinostat -0.05 | [7] -0.005 | [6] -0.068

TCP11L2 (UniProt Q8N4U5)
inactive: [4] -0.217 | gandotinib 0.019 | tozasertib -0.064 | [5] 0.024 | [6] 0.066

Remaining list, next part:

TCEAL9 (UniProt Q9UHQ7)
inactive: crizotinib -0.043 | doramapimod -0.003 | nilotinib 0.01 | [1] -0.022 | [2] 0.06 | quisinostat 0.049 | tipifarnib -0.121 | [7] 0.075

TBXAS1 isoform 3 (UniProt P24557)
inactive: crizotinib 0.092 | doramapimod 0.135 | quisinostat 0.288 | [7] -0.117

TFPI isoform 2 (UniProt P10646)
inactive: crizotinib 0.045 | doramapimod -0.121 | quisinostat -0.087 | [7] 0.082

TEAD3 (UniProt Q99594)
inactive: crizotinib 0.016 | duvelisib -0.101 | tozasertib 0.078 | doramapimod 0.011 | dasatinib -0.157 | [3] 0.02 | quisinostat -0.04 | [7] 0.008 | [6] 0.149

TCTN3 (UniProt Q6NUS6)
inactive: crizotinib 0.048 | [4] -0.103 | gandotinib -0.077 | doramapimod -0.119 | [5] 0.106 | nilotinib 0.014 | [1] -0.025 | [2] 0.027 | quisinostat 0.008 | tipifarnib -0.003 | [7] 0

TBKBP1 (UniProt A7MCY6)
inactive: pictilisib 0.073 | bafetinib -0.159

TAOK2 isoform 2 (UniProt Q9UL54)
inactive: nilotinib 0.109 | [1] 0.013 | [2] -0.01 | tipifarnib 0.031

TCEANC2 (UniProt Q96MN5)
inactive: pictilisib -0.046 | duvelisib -0.073 | tozasertib -0.063 | bafetinib -0.055 | nilotinib -0.042 | [1] -0.056 | dasatinib 0.015 | [2] 0.212 | [3] 0.028 | tipifarnib 0.087 | [6] 0.064
